# PubChem BioAssay AID504834 (National Center for Advancing Translational Sciences (NCATS), 2011)
# Values joined by “and” are separate entries in the source; they are usually repeats but may differ in a detail not shown here. Equal values may be shown once. Among all 320,000 compounds or so, about 22,000 (6.9%) were called active. The shares of active, inactive and inconclusive entries below differ from those in the screen. Calls follow the shape of the dose curve; as a rule, active = well fitted inhibition curve with a large enough effect; inconclusive = small, poorly fitted or top-dose-only effect, or another doubt; inactive = no such curve, though single readings can be large or run the other way. Where the call is inconclusive, the potency comes from a doubtful curve fit.
# Assay: Primary qHTS for delayed death inhibitors of the malarial parasite plastid, 96 hour incubation
# Conditions: P. falciparum luciferase reporter growth; series mostly up to 28.7 µM
# Method in brief: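 Two parasite generations (96 h, 37 C, 5% CO2) of compound exposure in infected erythrocytes (0.05% parasitemia, 2% hematocrit). Luciferase-reporter P. falciparum; decreased luminescence indicates inhibited growth, aimed at apicoplast-acting delayed death.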
# Potency is read from the fitted curve at half-maximal effect.
row,Structure (SMILES),Potency
1,CN(CCCNC(=O)c1ccc(N2CCCC2=O)cc1)c1ccccc1,"inconclusive: 18.5 µM [inhibitor, single point]"
2,O=C(NC1CCCc2ccccc21)C(Cc1ccccc1)NS(=O)(=O)c1cccs1 (centres undefined),"inconclusive: 18.5 µM [inhibitor, single point]"
3,CCC(=O)c1ccc(OCc2ccc(C(=O)c3ccccc3)cc2)cc1,inactive
4,COc1cc(C(=O)Cc2nc3ccccc3n2C)cc(OC)c1OC,inactive
5,COc1ccc(C2NC(=S)NC3=C2CCc2ccccc23)cc1OC (centres undefined),"inconclusive: 13.1 µM [inhibitor, single point]"
6,Cc1c(C(=O)Nc2ccc(Nc3ccccc3)cc2)cccc1[N+](=O)[O-],"inconclusive: 9.28 µM [inhibitor, single point]"
7,COCCn1c(SCC(=O)NCc2ccc(F)cc2)nc2ccccc21,"inconclusive: 18.5 µM [inhibitor, single point]"
8,Cc1cc(=O)n2c3ccccc3n(CC(O)CN3CCOCC3)c2c1C#N (centres undefined),"inconclusive: 9.28 µM [inhibitor, single point]"
9,COc1cc(-c2nc(-c3ccccn3)no2)cc(OC)c1OC,inactive
10,CCN(CC)C(=O)COc1ccc(/C(C)=N/NC(=O)c2ccccc2-n2cccc2)cc1,"inconclusive: 11.7 µM [inhibitor, single point]"
11,COc1ccc(CCNC(=O)[C@H](C)NC(=O)N2CCn3c2nc2ccccc23)cc1OC,"inconclusive: 13.1 µM [inhibitor, single point]"
12,COc1cccc(CNC(=O)CCC2CCCN(C3CCOCC3)C2)c1 (centres undefined),"inconclusive: 11.7 µM [inhibitor, single point]"
13,Cc1cccc2nc(CSc3nncn3-c3ccccc3)cn12,inactive
14,O=C(O)c1ccccc1N/N=C/C1=C(N2CCOCC2)C(=C\c2ccccc2)/CC1,"inconclusive: 8.28 µM [inhibitor, partial curve, poor fit]"
15,COC(=O)C1=C(C)NC(=S)NC1c1ccc(OC(=O)c2ccco2)cc1 (centres undefined),"inconclusive: 18.5 µM [inhibitor, single point]"
16,c1csc(-c2csc3nc(CN4CCOCC4)nc(NCc4ccc5c(c4)OCO5)c23)c1,active: 8.28 µM
17,Cn1c(CNC(=O)c2ccccc2F)nnc1SCC(=O)Nc1nncs1,inactive
18,CCn1c(SCc2ccc(F)cc2)nnc1-c1nn(-c2ccccc2)ccc1=O,active: 5.22 µM
19,COc1ccc(C2=CC3=C(Br)C(=O)C(C)(OC(=O)C4CCCC4)C(=O)C3=CO2)cc1 (centres undefined),inactive
20,COc1ccc(NS(=O)(=O)c2c(F)cc(F)c(Cl)c2F)cc1S(=O)(=O)N1CCCCC1,inactive
21,Cc1c(O)cc2n(c1=O)-c1ccc(Cl)cc1C2(C)C,"inconclusive: 13.1 µM [inhibitor, single point]"
22,COc1ccc(-c2csc(Nc3ccc(S(=O)(=O)Nc4cc(OC)nc(OC)n4)cc3)n2)cc1,active: 14.7 µM
23,O=C(NC1CCCCCCC1)C1CCN(S(=O)(=O)N2CCC3(CC2)OCCO3)CC1,"inconclusive: 8.28 µM [inhibitor, partial curve, poor fit]"

# Structural class, those above containing an aryl thioether with sulfur outside any ring
row,Structure (SMILES),Potency
7,COCCn1c(SCC(=O)NCc2ccc(F)cc2)nc2ccccc21,"inconclusive: 18.5 µM [inhibitor, single point]"
13,Cc1cccc2nc(CSc3nncn3-c3ccccc3)cn12,inactive
17,Cn1c(CNC(=O)c2ccccc2F)nnc1SCC(=O)Nc1nncs1,inactive
18,CCn1c(SCc2ccc(F)cc2)nnc1-c1nn(-c2ccccc2)ccc1=O,active: 5.22 µM

# Later entries:

row,Structure (SMILES),Potency
1,COc1ccc(NC2=CC(=O)CC(c3ccccc3)C2)c(OC)c1 (centres undefined),"inconclusive: 0.131 µM [inhibitor, full curve, poor fit]"
2,CC(=O)CSc1ncnc2sc3c(c12)CCC(C)C3 (centres undefined),inactive
3,CC(C(=O)NC1C=CS(=O)(=O)C1)N1C(=O)/C(=C\c2ccccc2)SC1=S (centres undefined),"inconclusive: 1.65 µM [inhibitor, single point]"
4,Cn1ccc2ccc(C3=CC(=O)C[C@H](c4ccc(F)cc4)C3)cc21,"inconclusive: 16.5 µM [inhibitor, partial curve]"
5,COc1c2c(cc3ccc(=O)oc13)CCO2,"inconclusive: 2.08 µM [inhibitor, full curve]"
6,Cc1c(Cl)ccc(S(=O)(=O)NCCN2CCOCC2)c1Cl,inactive
7,O=C(Nc1ccc(Cl)c(Cl)c1)OCCNC(=O)c1cccc(Cl)c1,inactive
8,O=C(Cc1ccc2c(c1)OCCO2)Nc1cc(C(F)(F)F)ccc1N1CCOCC1,"inconclusive: 16.5 µM [inhibitor, partial curve, poor fit]"
9,N/C(=N\OC(=O)c1cc(-c2ccccc2)nc2ccccc12)c1ccc(Cl)cc1,"inconclusive: 9.28 µM [inhibitor, single point]"
10,CC1CCN(S(=O)(=O)c2cn(CC(=O)Nc3ccc(OC(F)(F)F)cc3)cn2)CC1,inactive
11,O=C(C1CC12CCCC2)N1CCC(CO)(Cc2ccccc2Cl)CC1 (centres undefined),inactive
12,O=C(Nc1cccc(S(=O)(=O)NC2=NCCCCC2)c1)c1cc(-c2ccccc2)nc2ccccc12,"inconclusive: 18.5 µM [inhibitor, single point]"
13,O=C(c1ccc(Cl)cc1)N1CCN(C(=O)c2ccco2)CC1,inactive
14,Cn1c(=O)c(=O)n(C)c2cc(S(=O)(=O)Nc3ccc(OC(F)(F)F)cc3)ccc21,"inconclusive: 8.28 µM [inhibitor, partial curve, poor fit]"
15,COc1ccc(CCNC(=O)CN(c2ccc(C)cc2)S(=O)(=O)c2c(C)noc2C)cc1OC,"inconclusive: 10.4 µM [inhibitor, single point]"
16,CCOC(=O)N1CCN(C(=O)c2cc(C)c3c(C)nn(-c4ccccc4)c3n2)CC1,inactive
17,CC(NC(=O)COC(=O)CCc1ccc(S(=O)(=O)N2CCOCC2)cc1)C1CC2CCC1C2 (centres undefined),inactive
18,CCn1ccnc1CN(C)C(=O)C1CCC(=O)N(CCc2cccc(F)c2)C1 (centres undefined),inactive
19,CCCCCn1c(=O)[nH]c2cc(C(=O)NCCN3CCCCC3C)ccc2c1=O (centres undefined),"inconclusive: 13.1 µM [inhibitor, partial curve]"
20,CSc1nsc(/C=C/Nc2ccc(C)cc2)c1C#N,"inconclusive: 0.294 µM [inhibitor, partial curve, poor fit]"
21,CC(=O)c1sc2nc(C)cc(C)c2c1N,"inconclusive: 9.28 µM [inhibitor, partial curve, poor fit]"
22,COc1cccc(OCCn2cccc2/C=C2/C(=N)N3OC(C)=CC3=NC2=O)c1,"inconclusive: 0.657 µM [inhibitor, full curve, poor fit]"
23,O=C(Nc1ccccc1Cl)c1ccccc1Cl,inactive

row,Structure (SMILES),Potency
1,CCOC(=O)C1(CCCc2ccccc2)CCN(C(=O)c2cc(C)nn2CC)CC1,"inconclusive: 1.85 µM [inhibitor, partial curve, poor fit]"
2,Cc1nn(Cc2ccccc2Cl)c(Cl)c1C(=O)OCC(=O)NC(=O)NC1CCCCC1,inactive
3,COC(=O)c1ccc(/C=N\NC(=O)c2ccc(C)cc2Cl)cc1,"inconclusive: 23.3 µM [inhibitor, partial curve, poor fit]"
4,CCCCN(CCCC)S(=O)(=O)c1c(C)[nH]c(=O)[nH]c1=O,"inconclusive: 18.5 µM [inhibitor, single point]"
5,Cc1cc(N=NC(=O)c2ccccc2O)c2ccccc2c1O,"inconclusive: 4.15 µM [inhibitor, single point]"
6,O=C(CN(Cc1ccccc1Cl)C(=O)c1csnn1)NCCc1ccccc1,inactive
7,CCOC(=O)C1=C(Nc2ccccc2)CC(C)(O)C(C(=O)OCC)C1c1ccc(Br)cc1 (centres undefined),"inconclusive: 10.4 µM [inhibitor, single point]"
8,COc1ccc(-c2cc(C(F)(F)F)n3ncc(C(=O)Nc4c(C)n(C)n(-c5ccccc5)c4=O)c3n2)cc1,inactive
9,CSc1nc(N(C)C)nc(N2CC(=O)N(CCNS(=O)(=O)c3ccc(C)cc3)C2=N)n1,"inconclusive: 18.5 µM [inhibitor, single point]"
10,COc1cccc(N2CCc3c(C)nc4ccc(Cl)cc4c32)c1,active: 11.7 µM
11,CCOc1ccc(-c2c(=O)n(OCc3nc4ccccc4[nH]3)c3ccccc3[n+]2[O-])cc1,"inconclusive: 4.15 µM [inhibitor, single point]"
12,Cc1cccc(C)c1CC(=O)N1CCOCC1,"inconclusive: 20.8 µM [inhibitor, single point]"
13,COc1ccc(-c2cc(-c3nnc(COC(=O)C4CC4)o3)c3ccccc3n2)cc1OC,"inconclusive: 18.5 µM [inhibitor, single point]"
14,Cc1cccc(Nc2ccccc2C(=O)O)c1C,"inactive and inconclusive: 8.49 µM [inhibitor, partial curve, poor fit]"
15,CN(CC(=O)N1CCN(c2ccc(F)cc2)CC1)S(=O)(=O)c1ccc(F)cc1,"inconclusive: 4.15 µM [inhibitor, partial curve, poor fit]"
16,CCCc1nnc(SCc2ccc(OC)cc2)n1N,"inconclusive: 13.1 µM [inhibitor, single point]"
17,Cc1ccc(NC(=O)c2nn(C34CC5CC(CC(C5)C3)C4)cc2[N+](=O)[O-])cc1,active: 1.47 µM
18,COc1ccccc1N1CCN(CC(=O)Nc2ccccc2C(=O)NC(C)c2ccccc2)CC1 (centres undefined),"inconclusive: 18.5 µM [inhibitor, single point]"
19,O=C1C(Cl)=C(Nc2ccc3cn[nH]c3c2)C(=O)c2ccccc21,active: 8.28 µM
20,O=C(CSc1nnc(-c2ccccc2Br)o1)Nc1nncs1,"inconclusive: 2.08 µM [inhibitor, partial curve, poor fit]"
21,COc1ccc(NC(=O)CSc2ccc(-c3ccco3)nn2)c(OC)c1,active: 14.7 µM
22,COC(=O)COc1ccc2cccc(-n3cnnn3)c2c1,"inconclusive: 6.57 µM [inhibitor, partial curve, poor fit]"
23,COCCCN(C(C)=O)c1nc(-c2ccc(OC)cc2)cs1,inactive
